Taken from: PubChem BioAssay AID1671195 (Yale University, 2021)
Assay: 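Regulators of LDL receptor activity judged by labelled LDL uptake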 (primary screen). Cell system: human Huh7 hepatoma cells. Reagents: siRNA pool against human genes, 18 nM. Timing: about 2 to 2.5 days of knockdown, then 8 h LDL uptake. Conditions: DiI-labelled LDL at 30 µg/ml for 8 h, in lipoprotein-deficient serum medium. Read-out: 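Fluorescent LDL signal imaged in cells, scaled to the plate median, robust z-score for each replicate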. Reading the numbers: robust z-score: higher = more LDL uptake after knockdown. Active means: 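Active when two or more replicates show a robust z-score above 2 or below -2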.
Shown is an unselected part of about 22,000 deposited reagents. About 1,510 of all reagents (6.9%) count as active. 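Active includes knockdowns raising or lowering LDL uptake; positive z-scores mean more uptake, negative mean less.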

no.	Gene	robust z-score, replicate 1	robust z-score, replicate 2	robust z-score, replicate 3	Outcome
1	CD33	0.587	0.359	0.68	inactive
2	TARDBP	-0.423	1.56	0.458	inactive
3	MTHFR	-1.19	-0.806	-1.3	inactive
4	TM9SF4	-0.475	0.0726	-0.261	inactive
5	PCDH9	0.301	0.723	0.85	inactive
6	H4C13	-0.333	0.542	-1.07	inactive
7	MICA	-1.2	-0.996	-1.12	inactive
8	REG1B	-0.426	-0.236	-0.157	inactive
9	ELOVL2	0.558	0.576	0.796	inactive
10	C15orf45	-0.789	-1.11	-1.08	inactive
11	DNAJC7	2.05	1.25	1.67	inactive
12	HYOU1	-0.564	-0.557	-0.804	inactive
13	WWP1	1.32	1.73	1.85	inactive
14	LOC150519 (retired record)	0.858	0.0122	0.613	inactive
15	ACAP1	1.39	0.938	0.811	inactive
16	FAM53A	-0.594	-0.873	-1.2	inactive
17	ALKAL1	-0.106	-0.0616	-0.217	inactive
18	CIMIP6	-0.109	0.557	-0.224	inactive
19	DNAJB6	-0.177	0.238	0.00162	inactive
20	FLT3LG	-1.26	-0.848	-0.853	inactive
21	GCHFR	0.562	0.715	1.68	inactive
22	CCM2	-0.205	0.401	0.442	inactive
23	MED11	-0.385	-0.188	-0.207	inactive
24	RNF144A	2.14	1.46	1.77	inactive
25	LINC00954	0.0581	-0.272	-0.0855	inactive
26	TDRD12	-0.744	-1.66	-1.62	inactive
27	SIX5	-0.0533	0.246	0.127	inactive
28	PIPOX	0.336	1.43	0.194	inactive
29	ANAPC7	-0.751	0.00552	-1.79	inactive
30	ZBTB39	0.75	0.741	0.715	inactive
31	FLJ46284	1.09	0.926	1.21	inactive
32	IGSF6	-0.374	0.0378	3.64	inactive
33	LOC401123 (retired record)	-0.172	-0.776	-0.00443	inactive
34	SDC4	0.939	-0.299	-0.79	inactive
35	GABRB2	-0.624	-0.978	-0.125	inactive
36	AMPH	1.23	0.0902	0.509	inactive
37	LOC389685 (retired record)	0.746	0.513	0.769	inactive
38	BBS9	-1.02	0.292	-1.49	inactive
39	DEDD2	0.651	0.14	0.965	inactive
40	DZIP3	2.76	0.181	-0.396	inactive
41	NUSAP1	2.27	3.42	0.0234	active
42	SLAMF1	-0.66	-0.67	-0.311	inactive
43	LOC441507 (retired record)	-0.486	-1	-0.672	inactive
44	RBMS2	1.26	2.76	1.12	inactive
45	ZBTB18	-0.763	-0.512	-0.561	inactive
46	PRMT2IP	0.162	0.112	1.47	inactive
47	APEX2	-0.0117	-0.41	-0.289	inactive
48	NDUFAF4	0.844	-1.27	0.639	inactive
49	DHRS7C	-0.44	-0.66	-0.374	inactive
50	LOC441141 (retired record)	-1.08	-1.4	-1.25	inactive
51	PIK3CD	0.44	0.179	0.856	inactive
52	TSBP1	0.728	2.62	0.206	inactive
53	SLK	0.223	0.276	0.0903	inactive
54	ZBTB49	-0.112	-0.447	0.431	inactive
55	NDUFAF3	-1.8	-1.6	-2.13	inactive
56	NDST3	-0.576	-0.674	-0.189	inactive
57	LLPH	0.29	0.113	0.376	inactive
58	NTAQ1	-1.17	-2.08	-1.12	inactive
59	PTP4A2	1.47	1.62	1.28	inactive
60	PSRC1	0.728	0.859	0.729	inactive
61	KMT2B	1.64	1.57	1.13	inactive
62	TESK1	0.101	0.171	-0.152	inactive
63	EFEMP1	-2.26	-1.86	-1.5	active
64	LOC400768 (retired record)	0.139	0.389	1.09	inactive
65	TFAP4	-0.654	-0.917	-0.183	inactive
66	PNP	0.973	0.751	0.953	inactive
67	BLMH	-0.88	0.438	-0.521	inactive
68	HPS5	0.224	1.19	0.507	inactive

A portion from the list above:
no.	Gene	robust z-score, replicate 1	robust z-score, replicate 2	robust z-score, replicate 3	Outcome
12	HYOU1	-0.564	-0.557	-0.804	inactive
13	WWP1	1.32	1.73	1.85	inactive
14	LOC150519 (retired record)	0.858	0.0122	0.613	inactive
15	ACAP1	1.39	0.938	0.811	inactive
16	FAM53A	-0.594	-0.873	-1.2	inactive
17	ALKAL1	-0.106	-0.0616	-0.217	inactive
18	CIMIP6	-0.109	0.557	-0.224	inactive
19	DNAJB6	-0.177	0.238	0.00162	inactive
